Data taken from PubChem BioAssay AID741, deposited by SRMLSC (2007).

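The compound by itself is applied to MRP-overexpressing cells and the share of cells still alive is read; the cell line is not named here.
Each compound is tested alone at 10 µM.
The number is percent cell viability with the compound alone; higher viability means the compound is less active, or less toxic, by itself.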

Values are in %.
The controls that fix the scale are not given here.
Common to all entries: measured here: viability series, compound alone; at 10 µM.
This is a side read-out of the assay, for part of the compounds, not drawn at random.

| # | Compound | viability (%) |
|---|---|---|
| 1 | `CCOC(=O)c1ccccc1NC(=O)c1cccs1` | 96.49 |
| 2 | `COC(=O)C1=COC(C)C2CN3CCc4c([nH]c5ccccc45)C3CC12` (stereo not shown) | 96.42 |
| 3 | `Cc1cc(NC(=O)CSc2nnc(-c3ccc4c(c3)OCCO4)o2)no1` | 102.7 |
| 4 | `C=CCSc1nnc2n(-c3ccccc3OC)c(=O)c3c4c(sc3n12)CCC4` | 61.81 |
| 5 | `CSC1=NP(=S)(SC)N(C)c2nc3n(c21)CCC3` (stereo not shown) | 77.6 |
| 6 | `N#CC1=C(N)N(c2ccc(Br)cc2)C2=C(C(=O)CCC2)C1c1cccnc1` (stereo not shown) | 74.72 |
| 7 | `CC1CN(c2nc3c(c(=O)[nH]c(=O)n3C)n2Cc2ccccc2F)CC(C)O1` (stereo not shown) | 92.44 |
| 8 | `CCCC(=O)n1nc(-c2ccc(OC)cc2)nc1N` | 99.1 |
| 9 | `COc1ccccc1Nc1nc(N)nc(CN(C)C2CCCCC2)n1` | 100.8 |
| 10 | `Cn1c(=O)c2c(nc(CN3CCN(c4ccccc4)CC3)n2Cc2c(F)cccc2Cl)n(C)c1=O` | 83.06 |
| 11 | `COC(=O)CSc1nnc2n(-c3ccc(OC)cc3)c(=O)c3c4c(sc3n12)CCCCC4` | 90.05 |
| 12 | `CS(=O)(=O)N1CCN(c2ccccc2NC(=O)c2cccs2)CC1` | 96.61 |
| 13 | `CC(C)(C)c1ccc(C(=O)NNC(=O)Cc2cccc3ccccc23)cc1` | 100.2 |
| 14 | `O=C(C1CCC1)N1CCC(c2nc3c(nnn3Cc3c(F)cccc3Cl)c(=O)[nH]2)CC1` | 72.77 |
| 15 | `Cc1cc(NC(=O)CCC(=O)N(c2ccccc2)C(C(=O)NC2CCCCC2)c2cccs2)no1` (stereo not shown) | 86.95 |
| 16 | `CCOC(=O)c1c(NC(=O)CSc2nnc(-c3ccccc3)n2CC)sc(C(C)=O)c1C` | 87.29 |
| 17 | `COc1ccc(-n2c(SCC(=O)N3CCN(c4ccccc4)CC3)nc3c(c2=O)SCC3)cc1` | 76.32 |
| 18 | `CC(C)OCCCn1c(=NC(=O)c2ccncc2)c(C#N)cc2c(=O)n3ccccc3nc21` | 82.49 |
| 19 | `CC1CN(c2nc(-c3ccccc3)nc3ccccc23)CC(C)O1` (stereo not shown) | 100.9 |
| 20 | `Cc1cc(C)n(CC(O)CN2C(=O)NC(C)(C)C2=O)n1` (stereo not shown) | 107 |
| 21 | `CC1(C)CC(=O)C2=C(C1)OC(c1ccncc1)C(C#N)=C2N` (stereo not shown) | 86.93 |
| 22 | `Cc1ccc(Cl)cc1N1CCN(C(=O)CCC(=O)O)CC1` | 87.1 |
| 23 | `CCOC(=O)C1CCCN(c2c(Nc3ccc(C)c(C)c3)c(=O)c2=O)C1` (stereo not shown) | 79.31 |
| 24 | `Cn1c(=O)[nH]c(=O)c2c1nc(CN1CCOCC1)n2CCc1ccccc1` | 87.88 |
| 25 | `CCCc1nnc(SCc2ccc(C(=O)OC)o2)n1N` | 112.5 |
| 26 | `C=CCn1c(SCC(=O)c2cc(C)n(C(C)COC)c2C)nc2sc(C)c(C)c2c1=O` (stereo not shown) | 68.3 |
| 27 | `CCOC(=O)c1c(NC(=O)OC)sc(C(=O)N(C)C)c1C` | 103.3 |
| 28 | `C=CCn1c(=O)c2c3c(sc2n2c(Nc4ccccc4)nnc12)CCCC3` | 87.16 |
| 29 | `c1ccc(CN2CCN(CCCNc3ccc4nnc(-c5ccccc5)n4n3)CC2)cc1` | 82.78 |
| 30 | `Cc1ccc(S(=O)(=O)Oc2ccc(C)cc2/C=N/N=C2\NC(=O)C(C)S2)cc1` (stereo not shown) | 100.3 |
| 31 | `CCOC(=O)Nc1sc(C(=O)N(C)C)c(C)c1C(=O)OCC` | 95.16 |
| 32 | `COc1ccc2c(c1)c(CC(=O)O)c(C)n2C(=O)c1ccc(Cl)cc1` | 83.75 |
| 33 | `c1ccc(N2CCN(c3ccccc3)C2c2cccnc2)cc1` | 83.36 |
| 34 | `CCC(C)Nc1nc2c(c(=O)n(C)c(=O)n2C)n1Cc1cccc(C)c1` (stereo not shown) | 93.15 |
| 35 | `O=C1N2CN(C(c3ccccc3)c3ccccc3)CN=C2SC1(CO)CO` | 98.35 |
| 36 | `COC(=O)c1[nH]c2cccc(OC)c2c1NC(=O)CCN1CCN(c2cccc(Cl)c2)CC1` | 76.89 |
| 37 | `COC(=O)c1ccccc1NC(=O)CN1CCN(C(=O)c2ccco2)CC1` | 85.6 |
| 38 | `COCCCNC(=O)CCn1c(=O)c2ccccc2n(CC(=O)Nc2ccc(C)cc2C)c1=O` | 96.62 |
| 39 | `Cc1ccc(C(=O)Nc2ccccc2N2CCN(C(=O)C(C)C)CC2)cc1` | 97.35 |
| 40 | `CCOC(=O)c1cc(C)sc1NC(=O)C1CCC1` | 87.62 |
| 41 | `Cc1cc(/C=C(/C#N)c2cccc(F)c2)c(C)n1-c1cccnc1` | 83.05 |
| 42 | `CCN(CCCNC(=O)c1cn(CC)c2ccc(S(=O)(=O)N(C)C)cc2c1=O)c1cccc(C)c1` | 79.84 |
| 43 | `CCOC(=O)c1nnn(CC(=O)N2N=C(c3ccc(Cl)cc3)CC2c2ccc(OC)cc2)c1C(=O)OCC` (stereo not shown) | 81.46 |
| 44 | `Cc1cccc(Nc2ccccc2C(=O)O)c1C` | 100.6 |
| 45 | `CCOC(=O)C1CCN(Cc2nc3ccccc3c(=O)n2-c2ccc(OCC)cc2)CC1` | 108.5 |
| 46 | `O=C(c1ccc(CS(=O)(=O)c2ccc(Br)cc2)o1)N1CCN(C2CCCCC2)CC1` | 85.98 |
| 47 | `Cc1cccc(Cn2c(NCCO)nc3c2c(=O)n(C)c(=O)n3C)c1` | 101.9 |
| 48 | `COc1ccccc1C1C(C#N)=C(N)N(c2cccnc2)C2=C1C(=O)CC(C)(C)C2` (stereo not shown) | 75.27 |
| 49 | `Nc1ccc(-n2nncc2-c2ccco2)cc1` | 92.15 |
| 50 | `COc1cc(C(=O)Nc2nc3ccccc3[nH]2)cc(OC)c1OC` | 83.24 |
| 51 | `O/N=C/c1cn(-c2ccccc2)nc1-c1ccc2c(c1)OCCO2` | 97.88 |
| 52 | `COc1cc(OC)cc(C(=O)Nc2nc3ccccc3[nH]2)c1` | 86.18 |
| 53 | `CCOC(=O)c1cc2c(=O)n3ccccc3nc2n(CC2CCCO2)c1=NC(C)=O` (stereo not shown) | 87.8 |
| 54 | `O=C1C=C(c2ccccc2)C[C@H](c2cccs2)[C@H]1n1cnc([N+](=O)[O-])c1` | 84.29 |
| 55 | `CCCNC(=O)c1cc(-c2ccco2)on1` | 91.36 |
| 56 | `CNc1nc2c(c(=O)n(C)c(=O)n2C)n1Cc1ccccc1` | 98.42 |
| 57 | `Cc1ccc(NC(=O)N(Cc2ccc3c(c2)OCO3)Cc2cc3cc4c(cc3[nH]c2=O)OCCO4)cc1` | 93.71 |
| 58 | `Cc1cc(/C=C(\C#N)C(=O)OCC(=O)NC(=O)NC(C)(C)C)c(C)n1CCC(C)C` | 82.72 |
| 59 | `Nc1ccc(S(=O)(=O)c2ccc(N)cc2)cc1` | 114.6 |
| 60 | `CN1CCc2c(sc3c2c(=O)n(-c2ccccc2)c2nnc(SCc4ccc(Cl)cc4)n32)C1` | 91.7 |
| 61 | `Cc1ccccc1S(=O)(=O)Cc1ccc(C(=O)N2CCN(C3CCCCC3)CC2)o1` | 80.47 |
| 62 | `O=c1c2c3nc4ccccc4nc3n(CC3CCCO3)c2ncn1CCc1ccccc1` (stereo not shown) | 78.87 |
| 63 | `Cc1ccc(Cn2nnc3c(=O)[nH]c(C4CCN(S(=O)(=O)c5ccc(F)cc5)CC4)nc32)cc1` | 81.38 |
| 64 | `CCc1nnc(NC(=O)CSc2nnc(-c3cc4ccccc4cc3O)n2CC)s1` | 91.52 |
| 65 | `O=C(NCc1ccccc1)c1cc(-n2cnnc2)ccc1Cl` | 84.02 |
| 66 | `CCOC(=O)N1CCC(Nc2c(Nc3ccc(F)cc3)c(=O)c2=O)CC1` | 85.58 |
| 67 | `Brc1ccc(-c2nc3ncccn3c2NC2CCCCC2)o1` | 86.07 |
| 68 | `CCOC(=O)C1=C(C)NC2=C(C(=O)C(C(=O)OCC)C(c3ccco3)C2)C1c1ccccn1` (stereo not shown) | 86.45 |
| 69 | `CN(C)c1nc2c(c(=O)n(C)c(=O)n2C)n1Cc1ccccc1` | 82.32 |
| 70 | `CC1(C)Cc2c(sc3c2C2=NCCN2C=N3)CO1` | 95.87 |
| 71 | `CCOC(=O)N1CCC(Nc2c(Nc3ccc(C)c(C)c3)c(=O)c2=O)CC1` | 83.97 |
| 72 | `CCOC(=O)C1C2C=CC3(CN(CCc4ccccc4)C(=O)C13)O2` (stereo not shown) | 106.5 |
| 73 | `Cn1nnnc1SCC(=O)Nc1nc(-c2ccccc2)c(-c2ccccc2)o1` | 105.9 |
| 74 | `Cc1ccc(C(=O)CSc2nnc(COc3cccc(C)c3)o2)cc1` | 98.33 |
| 75 | `O=c1c2c3c(sc2n2cnnc2n1Cc1ccccc1)CN(Cc1ccccc1)CC3` | 91.71 |

The first 4 entries again:

Compound	viability (%)
CCOC(=O)c1ccccc1NC(=O)c1cccs1	96.49
COC(=O)C1=COC(C)C2CN3CCc4c([nH]c5ccccc45)C3CC12 (stereo not shown)	96.42
Cc1cc(NC(=O)CSc2nnc(-c3ccc4c(c3)OCCO4)o2)no1	102.7
C=CCSc1nnc2n(-c3ccccc3OC)c(=O)c3c4c(sc3n12)CCC4	61.81